Measurements as given in patent US12508280B2, “Formulations for improving gut health” (DSM IP ASSETS B.V., priority 2018, dated 2025).
For at least one compound, name, drawing or mass did not settle the structure.

Tested on: fecal suspension from the selected donor
Assay: Intestinal batch fermentation, SCFA production (first set)
Format: cell-based, human
Settings: after 48 h fermentation, vs corresponding control
Description: In a first set of in vitro experiments at the start of intestinal batch fermentation incubation, all test ingredients were added from stock solutions to the modified nutritional medium, containing (g/l): 2.5 K2HPO4, 10.9 KH2PO4, 2 NaHCO3, 2 yeast extract, 2 peptone, 1 mucin, 0.5 cysteine, 2 Tween 80, 2 glucose, 2 starch, 2 cellobiose, 0.1 NaCl, 0.01 MgSO4·7H2O, 0.01 CaCl2·6H2O, 0.05 hemin, 0.5 bile salts.
The other compounds were prepared in ethanol: • Vitamin K1 (VK1), • MEG-3 0080 EE Oil (MEG-3 0080 EE), • MEG-3 4535 EE Oil (MEG-3 4535 EE), • MEG-3 8000 EE Oil (MEG-3 8000 EE).
Since ethanol is known to have antimicrobial effects, two blanks for each type of stock solution were included. As a source of the microbial community, a freshly prepared fecal suspension from the selected donor was added to the reactors. […] All tests, except the blanks, were performed in single repetition, resulting in 40 independent incubations, as specified in Table 1. Incubation conditions of the pre-screening experiment and the final experiment were 48 h at 37° C., under shaking (90 rpm) and anaerobic conditions. DNA were extracted from effluent samples collected from each fermentation flask before (0 h fermentation) and after fermentation (24 h fermentation) and use for microbiome composition analysis by Shotgun sequencing. Effluent samples were collected from each fermentation flask before (0 h fermentation) and after fermentation (48 h fermentation), sterilized by filtering through 0.22 μm filters and used for short chain fatty acids (SCFA), quantification of immunological biomarkers and in vitro analysis in cell culture systems.
Short chain fatty acids (SCFA) are an assessment of the microbial carbohydrate metabolism (acetate, propionate and butyrate) or protein metabolism (branched SCFA) and can be compared to typical fermentation patterns for normal GI microbiota. Samples for SCFA analysis were analyzed after 0, 6, 24 and 48 h of incubation for both set of in vitro experiments, above.
SCFA were extracted from the samples with diethyl ether, after the addition of 2-methyl hexanoic acid as an internal standard. Extracts were analysed using a GC-2014 gas chromatograph (Shimadzu's-Hertogenbosch, the Nether-lands), equipped with a capillary fatty acid-free EC-1000Econo-Cap column (dimensions: […]×0.53 mm, film thickness […]; Alltech, Laarne, Belgium), a flame ionization detector and a split injector. The injection volume was […] and the temperature profile was set from 110 to 160° C., with a temperature increase of 6° C. min-1. The carrier gas was nitrogen and the temperature of the injector and detector were […] and 220° C., respectively. The production of unbranched and branched SCFA was calculated by summing the molar concentrations of acetate, propionate, butyrate, valerate and caproate, and summing isobutyrate, isovalerate and isocaproate molar concentrations, respectively. The total SCFA production was defined as the sum of unbranched and branched SCFA.

| SMILES | acetate production (0.2× dose) | butyrate production (0.2× dose) | propionate production (0.2× dose) | total SCFAs production (0.2× dose) | acetate production (1× dose) | butyrate production (1× dose) | propionate production (1× dose) | total SCFAs production (1× dose) | acetate production (5× dose) | butyrate production (5× dose) | propionate production (5× dose) | total SCFAs production (5× dose) |
| --- | --- | --- | --- | --- | --- | --- | --- | --- | --- | --- | --- | --- |
| CC/C=C\C/C=C\C/C=C\C/C=C\C/C=C\C/C=C\CCC(=O)O [DHA, docosahexaenoic acid] | increase acetate production | increase butyrate production | increase propionate production | increase total SCFAs production | increase acetate production | increase butyrate production | increase propionate production | increase total SCFAs production | increase acetate production | increase butyrate production | increase propionate production | increase total SCFAs production |
| CC/C=C\C/C=C\C/C=C\C/C=C\C/C=C\CCCC(=O)O [EPA, eicosapentaenoic acid] | increase acetate production | increase butyrate production | increase propionate production | increase total SCFAs production | increase acetate production | increase butyrate production | increase propionate production | increase total SCFAs production |  | increase butyrate production | increase propionate production |  |
